# Measurements taken from the supplement of paper PMC3682954.
# Counter-ions that a name gives are not always drawn. ± gives the standard deviation of the averaged measurements. Some of the results follow. Single values are uncertain, as repeats are few or missing.
# Tested on: RAW 264.7
# Assay: HMGB1-induced TNF-alpha production relative to HMGB1-stimulated control; higher = more TNF-alpha secretion (less inhibition)
# Conditions: stimulus: HMGB1 5 ug/ml, 18 h
# [1] = compound concentration: 1 ug/ml
SMILES,HMGB1-induced TNF-alpha production (compound concentration: 3 uM),HMGB1-induced TNF-alpha production [1]
"C/C=C/c1ccc(OC)cc1 [Anethole, trans-]",100%,–
C/C=C/c1ccc(OC)cc1,82.4%,–
COC(=O)C[C@](O)(CCCC(C)(C)O)C(=O)O[C@@H]1C(OC)=C[C@]23CCCN2CCc2cc4c(cc2[C@H]13)OCO4,-1.82%,–
Cc1[nH]c(=O)c(C#N)cc1-c1ccc2nccn2c1 [Olprinone hydrochloride],92.2%,–
CC(=O)O[C@H]1C(=O)[C@@]2(C)[C@H]([C@H](OC(=O)c3ccccc3)[C@]3(O)C[C@H](OC(=O)[C@H](O)[C@@H](NC(=O)c4ccccc4)c4ccccc4)C(C)=C1C3(C)C)[C@]1(OC(C)=O)CO[C@@H]1C[C@@H]2O [Taxol],112 ± 16%,–
CC(=O)O[C@H]1C(=O)[C@@]2(C)[C@H]([C@H](OC(=O)c3ccccc3)[C@]3(O)C[C@H](OC(=O)[C@H](O)[C@@H](NC(=O)c4ccccc4)c4ccccc4)C(C)=C1C3(C)C)[C@]1(OC(C)=O)CO[C@@H]1C[C@@H]2O [Paclitaxel],129%,–
CC(=O)O[C@H]1C(=O)[C@@]2(C)[C@H]([C@H](OC(=O)c3ccccc3)[C@]3(O)C[C@H](OC(=O)[C@H](O)[C@@H](NC(=O)c4ccccc4)c4ccccc4)C(C)=C1C3(C)C)[C@]1(OC(C)=O)CO[C@@H]1C[C@@H]2O,109 ± 6%,–
"O=Nc1ccc2oc(=O)ccc2c1 [6-Nitroso-1,2-benzopyrone]",88.2%,–
CC(C)(C)c1ccc(S(=O)(=O)/C=C/C#N)cc1,34.7%,–
CC(N)CCCC(C)(C)O (configuration not stated) [Heptaminol hydrochloride],74.2%,–
CC(N)CCCC(C)(C)O (configuration not stated),80.6%,–
CN1CCCN=C1/C=C/c1cccc(O)c1,80.3%,–
CN1CCCN=C1/C=C/c1cccc(O)c1 [Oxantel pamoate],70.2%,–
Oc1cccc(O)c1,98.7%,–
C[C@@H](O[C@H]1OCCN(Cc2n[nH]c(=O)[nH]2)[C@H]1c1ccc(F)cc1)c1cc(C(F)(F)F)cc(C(F)(F)F)c1 [Aprepitant],95.6%,–
"CC1CN([C@H]2C[C@H](O)[C@@H](CO)O2)C(=O)NC1=O (some centres not stated) [5,6-Dihydrothymidine]",–,82.7%
CC(=O)N(c1onc(C)c1C)S(=O)(=O)c1ccc(N)cc1,74.9%,–
Cc1cc(O)cc(C)c1Cl,83.7%,–
"O=c1cc(-c2ccccc2O)oc2ccc(O)cc12 [2',6-Dihydroxyflavone]",–,76.2%
"O=C(O)c1cc(=O)c2c(Cl)cc(Cl)cc2[nH]1 [5,7-Dichlorokynurenic acid]",85.4%,–
Nc1nc(OCC2CCCCC2)c2[nH]cnc2n1,99.6%,–
CC=CC1=C(C(=O)O)N2C(=O)[C@@H](NC(=O)[C@H](N)c3ccc(O)cc3)[C@H]2SC1,86.3%,–
NC(=O)CC[C@H](N)C(=O)O [L-Glutamine],84.6%,–
O=C1c2ccccc2C(=O)C1c1ccc(Br)cc1,87.9%,–
Cc1cc2c(s1)Nc1ccccc1N=C2N1CCN(C)CC1,87.9 ± 8.4%,–
Cc1cc2c(s1)Nc1ccccc1N=C2N1CCN(C)CC1 [Olanzapine],111 ± 20%,–

SMILES,HMGB1-induced TNF-alpha production (compound concentration: 3 uM),HMGB1-induced TNF-alpha production [1]
C[C@H]1[C@H](C)CC[C@]2(C(=O)O[C@@H]3O[C@H](CO[C@@H]4O[C@H](CO)[C@@H](O[C@@H]5O[C@H](C)[C@H](O)[C@@H](O)[C@H]5O)[C@H](O)[C@H]4O)[C@@H](O)[C@H](O)[C@H]3O)CC[C@]3(C)C(=CC[C@@H]4[C@@]5(C)C[C@@H](O)[C@H](O)[C@@](C)(CO)[C@@H]5CC[C@]43C)[C@H]12 [Asiaticoside],–,71.9%
C=C1CC/C=C(\C)CC[C@@H]2[C@@H]1CC2(C)C [(-)-trans-Caryophyllene],–,90%
"Cc1c(O)c(=O)n(-c2ccccc2)n1C [Antipyrine, 4-hydroxy]",68.8%,–
CC(C)OC(=O)C(C)(C)Oc1ccc(C(=O)c2ccc(Cl)cc2)cc1 [Fenofibrate],69.1 ± 8.7%,–
CC(C)OC(=O)C(C)(C)Oc1ccc(C(=O)c2ccc(Cl)cc2)cc1,81.7%,–
COc1ccccc1-c1oc2ccccc2c(=O)c1O [3-Hydroxy-2'-methoxyflavone],–,69.1%
Nc1ncnc2c1ncn2C1OC(COP(=O)(O)O)C(O)C1O (configuration not stated) [Adenosine 5'-monophosphate monohydrate],66.1%,–
CCOC(=O)c1cnc2c(cnn2CC)c1NN=C(C)C [Etazolate hydrochloride],89.3%,–
CCOC(=O)c1cnc2c(cnn2CC)c1NN=C(C)C [Etazolate],82%,–
CN1CCCN(C(c2ccccc2)c2ccc(Cl)cc2)CC1 (configuration not stated) [Homochlorcyclizine dihydrochloride],46.5%,–
C[C@@H]1C[C@H]2[C@@H]3CCC4=CC(=O)C=C[C@]4(C)[C@@]3(Cl)[C@@H](O)C[C@]2(C)[C@@]1(OC(=O)c1ccco1)C(=O)CCl [Mometasone furoate],39%,–
c1coc(CNc2ncnc3[nH]cnc23)c1 [Kinetin hydrochloride],–,62.8%
CCOc1ccc2nc(S(N)(=O)=O)sc2c1,74.9%,–
O=c1oc2cc(O)ccc2s1,81.1%,–
CCCCc1ccc2[nH]c(NC(=O)OC)nc2c1 [Parbendazole],155%,–
COc1cc2ncnc(Nc3cccc(Cl)c3)c2cc1OC [Tyrphostin AG 1478],115%,–
N#C/C(=C\c1ccc(O)c(O)c1)C(=O)NCCCc1ccccc1 [Tyrphostin AG 555],144%,–
C/C(=C\C(=O)OCCCCCCCCC(=O)O)C[C@@H]1OC[C@H](C[C@@H]2O[C@H]2[C@@H](C)[C@H](C)O)[C@@H](O)[C@H]1O,98.8 ± 0.69%,–
"c1ccc(C2CN3CCSC3=N2)cc1 (single isomer, unassigned; (-)) [(-)-Tetramisole hydrochloride]",105%,–
CN/C(=N\CCSCc1nc[nH]c1C)NC#N,90%,–
CN/C(=N\CCSCc1nc[nH]c1C)NC#N [Cimetidine],93 ± 26%,–
CCc1cccc(CC)c1NC(=O)CN(CC(=O)O)CC(=O)O [Etifenin],60.1%,–
O=C(O)c1cc2cc(Cc3cccnc3)ccc2o1 [Furegrelate sodium],81.2%,–
"Cc1cn([C@H]2CC[C@@H](CO)O2)c(=O)[nH]c1=O [2',3'-Dideoxythymidine]",–,80.9%
O=C(O)c1cc(/N=N/c2ccc(S(=O)(=O)Nc3ccccn3)cc2)ccc1O [Sulfasalazine],67.1 ± 33%,–
O=C(O)c1cc(/N=N/c2ccc(S(=O)(=O)Nc3ccccn3)cc2)ccc1O,90.8 ± 15%,–

# A different layout for some results above:
SMILES | HMGB1-induced TNF-alpha production (compound concentration: 3 uM) | HMGB1-induced TNF-alpha production [1]
O=c1oc2cc(O)ccc2s1 | 81.1% | –
CCCCc1ccc2[nH]c(NC(=O)OC)nc2c1 [Parbendazole] | 155% | –
